Measured values: PubChem BioAssay AID540276 (National Center for Advancing Translational Sciences (NCATS), 2011)
Where “and” joins values, the source holds several entries; their conditions need not be identical. Identical values can stand only once. The campaign covered roughly 300,000 compounds. About 5,400 (1.8%) were called active. Inconclusive means that the source gave no clear call. Such entries were picked first, then a sample of the others. Calls follow the shape of the full dose curve; tested in HEK293 cells. Potencies of inconclusive entries are doubtful fits and often do not repeat.

assay: qHTS for inhibitors of binding or entry into cells for Marburg Virus; settings: Marburg virus pseudotyped entry inhibition, cell reporter; activity change, negative = inhibition: at 37.8 µM (top of the series) unless noted
% is scaled to controls: 0 for no effect and ±100 for the full control effect; potency is read from the fitted curve at half-maximal effect.

SMILES	activity change, negative = inhibition	Potency
COc1ccccc1OCCC(=O)OCC(=O)Nc1ccc2c(c1)OCO2	inactive: 29.7%	
CC1S/C(=C(\C#N)C(=O)NCc2ccco2)N(c2ccc(F)cc2)C1=O (configuration not stated)	inactive: -5.37%	
COc1ccc(-c2nnc(SC(=O)N3c4ccccc4Sc4ccccc43)o2)cc1		inconclusive: 20.6 µM [inhibitor, single point]
c1ccc(NC2=Nc3ccccc3CS2)cc1	inactive: 14.9%	
N=c1n(CCCOc2ccc(F)cc2)c2ccccc2n1CC(N)=O		inconclusive: 11.2 µM [inhibitor, partial curve, poor fit]
CCOc1ccccc1NC(=O)COC(=O)c1c[nH]c2ccccc12		inconclusive: 6.31 µM [inhibitor, single point]
Nc1nc2c(Cl)cc(Cl)cc2s1		inconclusive: 5.62 µM [activator, single point]
Cc1ccc(O)c(C(=O)CC(=O)c2ccccc2Cl)c1		inconclusive: 35.5 µM [inhibitor, single point]
CCc1ccc(/C=C2/SC(=S)NC2=O)cc1		inconclusive: 29.1 µM [activator, single point]
Cc1ccc(S(=O)(=O)CC(=O)c2ccc(C)c([N+](=O)[O-])c2)cc1	inactive: -0.0022%	
O=C(CSCc1ccc(Cl)cc1)NCCSCc1ccco1	inactive: -10.9%	
O=C(CSc1ccc2nnc(-c3cccnc3)n2n1)Nc1ccc(F)cc1F	inactive: 16.1%	
Cc1ccc(O)c(-c2cc(C(=O)Nc3c(C)n(C)n(-c4ccccc4)c3=O)[nH]n2)c1		inconclusive: 0.126 µM [inhibitor, full curve, poor fit]
CC(=O)N/C(=C\c1ccccc1)C(=O)OCC(=O)c1ccccc1		inconclusive: 6.31 µM [inhibitor, single point]
COc1ccc(N2C(=O)/C(=C/c3cccs3)NC2=S)cc1		inconclusive: 0.184 µM [activator, full curve, poor fit]
Cc1nn(C)c(C)c1CNC(=O)Nc1cccc(Cl)c1C	inactive: -5.57%	
COCCCNC(=O)c1c(N)n(/N=C/c2cccnc2)c2nc3ccccc3nc12		inactive and inconclusive: 35.5 µM [inhibitor, single point]
Clc1ccc(C2=NNC(=NCC3CCCO3)SC2)cc1 (configuration not stated)	inactive: 0.486% [at 46.1 µM]	
Cc1ccc([N+](=O)[O-])cc1NC(=O)c1ccc2c(c1)OCO2	inactive: 2.07% [at 46.1 µM]	
O=C1Cn2c(nc3ccccc32)N1c1ccccc1F	inactive: 14.1%	
COc1nc(N)nc2c1ncn2C1OC(CO)CC1O (configuration not stated)		inconclusive: 3.55 µM [activator, partial curve, poor fit]
CCOC(=O)c1c(C)nn(-c2ccc(NC(=O)c3cccs3)cc2)c1C		inconclusive: 5.62 µM [inhibitor, partial curve, poor fit]
CCN1/C(=C/c2ccc3ccc(C)cc3[n+]2CC)Sc2ccccc21		active: 5.01 µM
CC1CN(CCCSc2ccc(Cl)cc2)CC(C)O1 (configuration not stated)	inactive: -24.6% [at 46.1 µM]	

SMILES	activity change, negative = inhibition	Potency
Cc1ccc(CN2CC34C=CC(O3)C(C(=O)NCc3ccco3)C4C2=O)cc1 (configuration not stated)	inactive: -7.33%	
CN(C)/C=C/c1onc(-c2c(Cl)cccc2Cl)c1C#N		inconclusive: 22.4 µM [inhibitor, single point]
CNC(=O)CSc1cnc2ccccc2n1	inactive: 3.02% [at 46.1 µM]	
CN(C)c1ccc(CN(CC2CCCO2)C(=O)COc2ccc(Cl)cc2)cc1 (configuration not stated)		inconclusive: 39.8 µM [inhibitor, partial curve, poor fit]
C=CCn1c(SCc2ccc(F)cc2)nnc1-c1sc2nc(C)cc(C)c2c1N		inconclusive: 6.31 µM [inhibitor, partial curve, poor fit]
CC1c2ccsc2CCN1C(=O)NC(=O)c1ccc(Cl)cc1 (configuration not stated)		inconclusive: 5.62 µM [inhibitor, single point]
O=C(CSc1nc2[nH]c(=O)cc(O)c2s1)Nc1nccs1		inconclusive: 6.31 µM [activator, single point]
c1ccc(-c2noc(CN3CCN(c4cnccn4)CC3)n2)cc1	inactive: 6.43% [at 46.1 µM]	
COC(=O)c1ccc2c(=O)n(-c3ccc(OC)cc3)c(=S)[nH]c2c1		inconclusive: 15.8 µM [inhibitor, single point]
O=C(c1ccncc1)N1N=C(c2ccc(Cl)cc2)CC1c1ccccc1O (configuration not stated)		inconclusive: 14.1 µM [inhibitor, partial curve, poor fit]
COc1ccccc1NS(=O)(=O)c1cccc(NC(=O)c2ccc3ccccc3n2)c1		inconclusive: 15.8 µM [inhibitor, single point]
CN(C)c1ccc(CNc2nc(-c3ccco3)nn2C(=O)c2cccc([N+](=O)[O-])c2)cc1		inconclusive: 2 µM [activator, single point]
CSc1nnc(-c2cccs2)n1-c1ccccc1	inactive: 3.75%	
CCOC(=O)N1CCN(c2nnc(-c3ccccc3)c3ccccc23)CC1		inconclusive: 35.5 µM [inhibitor, single point]
Cc1c(/C=N/O)c2ccccn2c1C(=O)c1ccc(F)cc1		inconclusive: 22.4 µM [inhibitor, single point]
O=C(Nc1sc2c(c1C(=O)c1ccccc1)CCCC2)c1cccnc1	inactive: 4.88%	
COc1ccccc1N1CCN(C(=O)COc2cc(C)ccc2C)CC1		inconclusive: 35.5 µM [inhibitor, single point]
CCCNC(=O)COC(=O)/C=C/c1ccco1		inconclusive: 0.316 µM [inhibitor, partial curve, poor fit]
COc1cc(C(C)=O)ccc1OCC(O)CN1CCN(c2ccc(F)cc2)CC1 (configuration not stated)		inconclusive: 1.41 µM [inhibitor, partial curve, poor fit]
COC(=O)CNC(c1ccccc1)c1cc(C)ccc1NC(=O)CNC(=O)OCc1ccccc1 (configuration not stated)	inactive: -16.2%	
O=C(CN1C(=O)CC(c2ccco2)Sc2ccccc21)NCC1CCCO1 (configuration not stated)		inconclusive: 3.66 µM [activator, single point]
Cc1nc2ccsc2c(=O)n1-c1ccccc1Cl		inconclusive: 3.55 µM [activator, partial curve, poor fit]
Cc1cc(C)c(CN2CCN(C(=O)Cn3cnc(C(=O)Nc4ccc(C)c(C)c4)n3)CC2)c(C)c1	inactive: -3.52%	
COc1cc(CN(CCN(C)C)Cc2ccccc2)ccc1OCc1ccccc1		inconclusive: 15.8 µM [inhibitor, single point]

SMILES	activity change, negative = inhibition	Potency
CCOc1ccc(N2C(=O)C3CC(C)=C(C)CC3C2=O)c([N+](=O)[O-])c1 (configuration not stated)	inactive: 28.5%	
CCn1cc(CN2CCCC(CO)(Cc3ccc(F)cc3)C2)c2ccccc21 (configuration not stated)		inconclusive: 11.2 µM [inhibitor, partial curve, poor fit]
CCCSc1cc(NCCOC(=O)CCC)c([N+](=O)[O-])c2nonc12	inactive: -2.27%	
Cc1cc(C(=O)C(=O)NC(C)C)c(C)n1-c1ccc([N+](=O)[O-])cc1	inactive: 1.56%	
COc1ccccc1OCCn1c(=O)oc2ccc(C)cc21		inconclusive: 3.16 µM [activator, single point]
OCc1nc2ccccc2n1CCCCOc1ccccc1		inconclusive: 14.1 µM [inhibitor, partial curve, poor fit]
O=C(CCSc1ccccc1)Nc1ccc(S(=O)(=O)N2CCOCC2)cc1	inactive: 1.85% [at 46.1 µM]	
C[N+]1(C)CC2=Cc3ccccc3CC2C1 (configuration not stated)	inactive: 6.14% [at 46.1 µM]	
O=C(Nc1nnc(COc2ccc(Cl)cc2)s1)c1ccco1		inconclusive: 3.16 µM [activator, single point]
COC(=O)NC(=S)Nc1ccc(Oc2ccc(Cl)cc2Cl)c(Cl)c1		inconclusive: 35.5 µM [inhibitor, single point]
COC(=O)C1=C(C)[C@H](O)[C@@H](C)[C@](C)(c2cc(OC)c(C)c(OC)c2COc2ccccc2)O1		inconclusive: 6.68 µM [inhibitor, partial curve, poor fit] and inconclusive: 1.33 µM [inhibitor, partial curve, poor fit]
CN(c1ccccc1)S(=O)(=O)c1cccc(NC(=O)CC(C)(C)C)c1		inconclusive: 15.8 µM [inhibitor, single point]
Cc1ccc(NC2=NC(c3ccc(F)cc3)n3c(nc(C)cc3=O)N2)cc1 (configuration not stated)	inactive: -4.51% [at 46.1 µM]	
O=C(CCCc1nc(-c2ccccc2Cl)no1)NC1CCCCC1		inconclusive: 11.2 µM [inhibitor, single point]
COc1ccccc1C=NN1CCCCCC1		inconclusive: 1.26 µM [activator, partial curve, poor fit]
O=C(c1ccc(Cl)cc1)N1CCN(c2ccc(F)cc2)CC1		inconclusive: 28.2 µM [activator, single point]
Cc1[nH]nc2c1C(c1cccs1)C(C#N)=C(N)O2 (configuration not stated)		inconclusive: 14.1 µM [inhibitor, partial curve, poor fit]
CCN1C(=O)/C(=C2\Sc3ccccc3N2CC)OC1=S		inconclusive: 0.0046 µM [inhibitor, full curve, poor fit]
Cc1nc2c(C#N)cnn2c2c1CCNN2C	inactive: -6.5% [at 46.1 µM]	
Cc1ccc(-c2nc3c4cnn(-c5cc(Cl)ccc5Cl)c4ncn3n2)cc1		inconclusive: 5.62 µM [inhibitor, single point]
Cc1ccc(C(=O)Nc2ccc(C(F)(F)F)n(C)c2=O)cc1	inactive: -4.09% [at 46.1 µM]	
CC(C)(C)C(=O)N1CCN(c2ccc(NC(=O)c3ccc4c(c3)OCCO4)cc2)CC1		inconclusive: 11.2 µM [inhibitor, partial curve, poor fit]
CCN(CC)S(=O)(=O)c1ccc(OC)c(NC(=O)CCS(=O)(=O)Cc2ccccc2)c1	inactive: -1.14%	
Cc1ccc(C(=O)N(CCc2ccccc2)Cc2ccccc2)cc1S(=O)(=O)N1CCCCC1		inconclusive: 35.5 µM [inhibitor, single point]
